Test results reported in paper doi:10.1101/2022.03.02.482546.
No constants are given. Whether binding was seen depends on the method and setting.

Molecular target: soluble form of full-length LRP1 (low-density lipoprotein receptor-related protein 1) (human)
Assay: ELISA

B1: recombinant fibulin1C (protein, UniProt P23142-4 30-683)
chain: DVLLEACCADGHRMATHQKDCSLPYATESKECRMVQEQCCHSQLEELHCATGISLANEQDRCATPHGDNASLEATFVKRCCHCCLLGRAAQAQGQSCEYSLMVGYQCGQVFQACCVKSQETGDLDVGGLQETDKIIEVEEEQEDPYLNDRCRGGGPCKQQCRDTGDEVVCSCFVGYQLLSDGVSCEDVNECITGSHSCRLGESCINTVGSFRCQRDSSCGTGYELTEDNSCKDIDECESGIHNCLPDFICQNTLGSFRCRPKLQCKSGFIQDALGNCIDINECLSISAPCPIGHTCINTEGSYTCQKNVPNCGRGYHLNEEGTRCVDVDECAPPAEPCGKGHRCVNSPGSFRCECKTGYYFDGISRMCVDVNECQRYPGRLCGHKCENTLGSYLCSCSVGFRLSVDGRSCEDINECSSSPCSQECANVYGSYQCYCRRGYQLSDVDGVTCEDIDECALPTGGHICSYRCINIPGSFQCSCPSSGYRLAPNGRNCQDIDECVTGIHNCSINETCFNIQGGFRCLAFECPENYRRSAATRCERLPCHENRECSKLPLRITYYHLSFPTNIQAPAVVFRMGPSSAVPGDSMQLAITGGNEEGFFTTRKVSPHSGVVALTKPVPEPRDLLLTVKMDLSRHGTVSSFVAKLFIFVSAEL
binding: no binding
